Data as given in PubChem BioAssay AID1159578 (Peter MacCallum Cancer Centre, 2015)
The deposit covers about 18,000 reagents; shown is a part drawn at random. About 1,030 of them (5.7%) count as active. 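Inactive calls also include pools with fewer than 3300 nuclei, whose migration was not assessed.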 Raw values vary from plate to plate and are shown uncorrected. Further read-outs or replicates are left out here.

Screen: 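siRNA pools altering how lymphatic endothelial cells close a scratch wound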 (primary screen)
System: human lymphatic endothelial cells
Knock-down reagent: siRNA pool against human genes, 40 nM
Timing: 48 h after transfection
Measured: 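Cells stained with dye and imaged after a scratch; covered wound area and nuclei counted, duplicates averaged, migration set against mock wells and turned into a robust z-score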
Reading the numbers: migration robust z-score: higher = faster migration into the scratch; nuclei per well: higher = more cells in the well
Active means: 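Migration changed when robust z exceeds 2 or falls below -2 and mean nuclei number is at least 3300; otherwise not called changed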
Meaning of the calls: active = migration changed; inactive = no migration change, or too few cells

GPR17 showed migration robust z-score -0.11; nuclei per well, duplicate mean 5106; inactive.
Silencing of NOP16 came out at: migration robust z-score 0.94; nuclei per well, duplicate mean 6452; inactive.
Knock-down of TTC22 came out at: migration robust z-score 1.9; nuclei per well, duplicate mean 5284; inactive.
After knock-down of NEDD8 the results were migration robust z-score 0.42; nuclei per well, duplicate mean 5591; inactive.
After knock-down of ZNF34, the screen gave migration robust z-score 0.52; nuclei per well, duplicate mean 5074; inactive.
MCU showed migration robust z-score -1.09; nuclei per well, duplicate mean 5260; inactive.
OSBPL1A gave migration robust z-score -0.05; nuclei per well, duplicate mean 7421; inactive.

Look-ups from the entries so far:
OSBPL1A, outcome → inactive
For “outcome”, GPR17 reads inactive

Further records follow:
SYT1 showed migration robust z-score 0.62; nuclei per well, duplicate mean 4410; inactive.
Knock-down of THOC1 gave: migration robust z-score -0.48; nuclei per well, duplicate mean 7359; inactive.
For IL23A, the entry reads migration robust z-score 0.36; nuclei per well, duplicate mean 5280; inactive.
With knock-down of BMX the results were migration robust z-score 0.26; nuclei per well, duplicate mean 6356; inactive.
AS3MT showed migration robust z-score -1.94; nuclei per well, duplicate mean 3144; inactive.
Knock-down of CA3 gave: migration robust z-score -1.09; nuclei per well, duplicate mean 5573; inactive.
With knock-down of C2CD5 the results were migration robust z-score 0.14; nuclei per well, duplicate mean 6333; inactive.
PRR36 scored migration robust z-score 0.23; nuclei per well, duplicate mean 7024; inactive.
After knock-down of HMGCS2 the results were migration robust z-score 0.41; nuclei per well, duplicate mean 7516; inactive.
BMP15 showed migration robust z-score 0.94; nuclei per well, duplicate mean 5546; inactive.
With knock-down of SPTBN2, the screen gave migration robust z-score 0.74; nuclei per well, duplicate mean 5958; inactive.
LOC401052 (retired record) showed migration robust z-score 0.04; nuclei per well, duplicate mean 5685; inactive.
With knock-down of PSMC4, the screen gave migration robust z-score -1.52; nuclei per well, duplicate mean 6100; inactive.
Depletion of EEPD1 resulted in: migration robust z-score 0.52; nuclei per well, duplicate mean 5140; inactive.
